Results as given in the supplement of paper PMC6289059.
Where “and” joins values, the source holds several entries; their conditions need not be identical. Equal entries are not always repeated. Structures can show the parent of a compound that is named as a salt. The list shows a part of the results. Single values are uncertain, as repeats are few or missing.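 The assay uses human stem cell-derived hepatocyte-like cells whose DGUOK gene was disrupted by CRISPR, modeling liver mtDNA depletion syndrome. ATP signals were scored within each plate, and any drug with a score of at least 3 was called a primary hit.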

Tested on: DGUOK Δ14/Δ5 iPSC-derived hepatocyte-like cells (SV20)
Assay: ATP level (CellTiter-Glo luminescence) Z score relative to plate distribution, under 2-DG glycolysis block; higher = more cellular ATP (rescue of mitochondrial ATP production)
Conditions: 5 µM; treatment time: day 15 to day 20 of differentiation (5 days); 2-deoxy-D-glucose: 20 mM for 24 h before assay

SMILES	ATP level
COc1ccccc1OCC(O)CO (centres undefined)	inactive: 0.849
Cc1cc(=O)[nH]c(=S)[nH]1	inactive: 0.568 and inactive: 0.941
CC(=O)[C@H]1CC[C@H]2[C@@H]3C=CC4=CC(=O)CC[C@@]4(C)[C@@H]3CC[C@]12C	inactive: -0.057
CN1[C@@H]2CC[C@H]1C[C@@H](OC(=O)c1c[nH]c3ccccc13)C2	inactive: -10.5
O=C(CCCCCCCC(=O)NCCO)NCCO	inactive: 0.585
Cc1cccc(C)c1OCC(C)N (centres undefined)	inactive: -0.847
Oc1ccc(/C=C/c2cc(O)cc(O)c2)cc1	inactive: -0.607
CC(=O)N1CCCC1C(=O)O (centres undefined)	inactive: -0.332
CCOC(=O)C1=C(COCCN)NC(C)=C(C(=O)OC)C1c1ccccc1Cl (centres undefined)	inactive: -2.48
Oc1c(Cl)cc(Cl)c(Cl)c1Cc1c(O)c(Cl)cc(Cl)c1Cl	inactive: -12.3
CC(C(=O)O)c1ccc2c(c1)[nH]c1ccc(Cl)cc12 (centres undefined)	inactive: 1.83
CO/N=C(\C(=O)N[C@@H]1C(=O)N2C(C(=O)O)=C(CSc3nnnn3C)CS[C@H]12)c1csc(N)n1	inactive: 2.78
O=C(O)C1CCCNC1 (centres undefined)	inactive: 0.384
Cc1cccc(C)c1NC(=O)C(C)N (centres undefined)	inactive: -0.818
O=C1c2c(O)cccc2C([C@@H]2O[C@H](CO)[C@@H](O)[C@H](O)[C@H]2O)c2cc(CO)cc(O)c21 (some centres undefined)	inactive: -1.11
Nc1nc2[nH]cnc2c(=S)[nH]1	inactive: -1.78 and inactive: -13.3
Cc1c(OCC(F)(F)F)ccnc1C[S@@+]([O-])c1nc2ccccc2[nH]1	inactive: 0.0214
O=c1ccc2cc(O)c(O)cc2o1	active: 6.03
C[C@H](CCC(=O)O)[C@H]1CC[C@H]2[C@@H]3[C@H](O)C[C@@H]4C[C@H](O)CC[C@]4(C)[C@H]3C[C@H](O)[C@]12C	active: 4.14
CC(=O)OC1CCC2(C)C(=CCC3C2CCC2(C)C(C(C)CCCC(C)C)CCC32)C1 (centres undefined)	inactive: 1.45
CC(C)=CCC[C@@H](C)[C@H]1CC[C@@]2(C)C3=C(CC[C@]12C)[C@@]1(C)CC[C@H](O)C(C)(C)[C@@H]1CC3	inactive: 0.327
O=C(OCC(O)CO)c1ccccc1Nc1ccnc2cc(Cl)ccc12 (centres undefined)	inactive: 0.503
CC(C(=O)O)c1ccc(-c2ccccc2)c(F)c1 (centres undefined)	inactive: 1.32
Cc1cc(O)c2c(c1)C(=O)c1cccc(O)c1C2=O	inactive: 1.98
COc1cc2c(N3CCN(C(=O)Nc4ccc(OC(C)C)cc4)CC3)ncnc2cc1OCCCN1CCCCC1	inactive: -4.46
C[C@H]1O[C@@H](O[C@H]2[C@@H](O)C[C@H](O[C@H]3[C@@H](O)C[C@H](O[C@H]4CC[C@@]5(C)[C@H](CC[C@@H]6[C@@H]5C[C@@H](O)[C@]5(C)[C@@H](C7=CC(=O)OC7)CC[C@]65O)C4)O[C@@H]3C)O[C@@H]2C)C[C@H](O)[C@@H]1O	inactive: -26.5
NS(=O)(=O)c1cc2c(cc1Cl)NC(C(Cl)Cl)NS2(=O)=O (centres undefined)	inactive: -0.613

Of the compounds above, these have an NH in an aromatic ring.
SMILES	ATP level
Cc1cc(=O)[nH]c(=S)[nH]1	inactive: 0.568 and inactive: 0.941
CN1[C@@H]2CC[C@H]1C[C@@H](OC(=O)c1c[nH]c3ccccc13)C2	inactive: -10.5
CC(C(=O)O)c1ccc2c(c1)[nH]c1ccc(Cl)cc12 (centres undefined)	inactive: 1.83
Nc1nc2[nH]cnc2c(=S)[nH]1	inactive: -1.78 and inactive: -13.3
Cc1c(OCC(F)(F)F)ccnc1C[S@@+]([O-])c1nc2ccccc2[nH]1	inactive: 0.0214

Two neighbouring compounds from above, quoted:
SMILES	ATP level
CC(=O)OC1CCC2(C)C(=CCC3C2CCC2(C)C(C(C)CCCC(C)C)CCC32)C1 (centres undefined)	inactive: 1.45
CC(C)=CCC[C@@H](C)[C@H]1CC[C@@]2(C)C3=C(CC[C@]12C)[C@@]1(C)CC[C@H](O)C(C)(C)[C@@H]1CC3	inactive: 0.327

Going on with the list:

SMILES	ATP level
CN[C@@H]1[C@H](O)[C@H](NC)[C@H]2O[C@@]3(O)C(=O)C[C@@H](C)O[C@H]3O[C@@H]2[C@H]1O	inactive: -0.204
CN[C@H](CC(=O)O)C(=O)O	inactive: -0.794
CC(=O)N[C@@H](C=O)[C@@H](O[C@H](C)C(=O)O)[C@H](O)[C@H](O)CO	inactive: 1.21
CC(C)=CCC[C@@H](C)CC=O	inactive: -0.178
Cc1onc(-c2ccccc2Cl)c1C(=O)N[C@@H]1C(=O)N2[C@@H]1SC(C)(C)[C@@H]2C(=O)O	inactive: 1.16
CC12CCC(CC1=O)C2(C)C (centres undefined)	inactive: 0.238
CN[C@@H]1[C@@H](O[C@H]2O[C@H](CO)[C@@H](N)[C@H](O)[C@H]2O)OC2C[C@@H](N)[C@@H](O[C@H]3[C@H](O)[C@@H](O)[C@H](N)C[C@@H]3N)OC2[C@@H]1O (some centres undefined)	inactive: 0.683
CC1(C)O[C@H]2CC(=O)OC[C@]23[C@H]2CC[C@@]4(C)[C@H](c5ccoc5)OC(=O)[C@H]5O[C@]54[C@]2(C)C(=O)C[C@@H]13	inactive: -0.239
CC(=O)Oc1cc(OC(C)=O)c2c(c1)O[C@H](c1ccc(OC(C)=O)c(OC(C)=O)c1)[C@@H](OC(C)=O)C2	inactive: 1.8
CC(C)CCC[C@@H](C)[C@H]1CC[C@H]2[C@@H]3CC(=O)[C@H]4C[C@@H](O)CC[C@]4(C)[C@H]3CC[C@]12C [5alpha-CHOLESTAN-3beta-OL-6-ONE]	inactive: -0.705
CCCCCCOC(=O)NC(=N)c1ccc(NCc2nc3cc(C(=O)N(CCC(=O)OCC)c4ccccn4)ccc3n2C)cc1	inactive: -1.61
NCCCC(=O)O [gamma-AMINOBUTYRIC ACID HYDROCHLORIDE]	inactive: 0.687
CCCCCCCCCCCCCCCCCCCCCCO	inactive: 1.15
CC(=O)NC(Cc1ccccc1)C(=O)O (centres undefined)	inactive: 0.76
COc1ccc(O)cc1	inactive: -2.58
CCN(CC)CCNC(=O)c1cc(Cl)c(N)cc1OC	inactive: -3.02
NCCCNCCCCNCCCN	inactive: 1.43
COc1ccc(-c2oc3cc(OC)c(OC)c(OC)c3c(=O)c2OC)cc1	inactive: -1.27
CC(C)(CO)C(O)C(=O)NCCCO (centres undefined)	inactive: -2.44
CCOc1ccc2ccccc2c1C(=O)N[C@@H]1C(=O)N2[C@@H]1SC(C)(C)[C@@H]2C(=O)O	inactive: 0.132
Cn1cnc2c1c(=O)[nH]c(=O)n2C	inactive: 1.5
CC1=NN(c2ccccc2)C(=O)C1	inactive: -0.537
C[n+]1c2cc(N)ccc2cc2ccc(N)cc21	inactive: -21.2
COc1ccc(-c2coc3cc(OC)ccc3c2=O)cc1	inactive: 0.167
O=C(O)CCNC(=O)c1ccccc1	inactive: 1.61
O=C(N[C@H](CO)[C@H](O)c1ccc([N+](=O)[O-])cc1)C(Cl)Cl	inactive: -7.02
CCC[C@@H]1C[C@@H](C(=O)N[C@@H]([C@H]2O[C@H](SC)[C@H](O)[C@@H](O)[C@H]2O)[C@H](C)Cl)N(C)C1	inactive: -1.3
